Reference: the supplement of paper PMC10849652
Some of the results follow.

Amino acid sequences for entries named in this document (tags omitted). A change or cut given only in a name is not applied to a line headed by its entry.
UniProt P54852: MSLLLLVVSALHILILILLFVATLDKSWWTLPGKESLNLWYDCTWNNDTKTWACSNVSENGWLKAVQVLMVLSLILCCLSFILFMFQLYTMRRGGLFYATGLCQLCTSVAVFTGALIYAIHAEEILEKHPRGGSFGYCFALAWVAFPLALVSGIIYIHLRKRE
UniProt P58107: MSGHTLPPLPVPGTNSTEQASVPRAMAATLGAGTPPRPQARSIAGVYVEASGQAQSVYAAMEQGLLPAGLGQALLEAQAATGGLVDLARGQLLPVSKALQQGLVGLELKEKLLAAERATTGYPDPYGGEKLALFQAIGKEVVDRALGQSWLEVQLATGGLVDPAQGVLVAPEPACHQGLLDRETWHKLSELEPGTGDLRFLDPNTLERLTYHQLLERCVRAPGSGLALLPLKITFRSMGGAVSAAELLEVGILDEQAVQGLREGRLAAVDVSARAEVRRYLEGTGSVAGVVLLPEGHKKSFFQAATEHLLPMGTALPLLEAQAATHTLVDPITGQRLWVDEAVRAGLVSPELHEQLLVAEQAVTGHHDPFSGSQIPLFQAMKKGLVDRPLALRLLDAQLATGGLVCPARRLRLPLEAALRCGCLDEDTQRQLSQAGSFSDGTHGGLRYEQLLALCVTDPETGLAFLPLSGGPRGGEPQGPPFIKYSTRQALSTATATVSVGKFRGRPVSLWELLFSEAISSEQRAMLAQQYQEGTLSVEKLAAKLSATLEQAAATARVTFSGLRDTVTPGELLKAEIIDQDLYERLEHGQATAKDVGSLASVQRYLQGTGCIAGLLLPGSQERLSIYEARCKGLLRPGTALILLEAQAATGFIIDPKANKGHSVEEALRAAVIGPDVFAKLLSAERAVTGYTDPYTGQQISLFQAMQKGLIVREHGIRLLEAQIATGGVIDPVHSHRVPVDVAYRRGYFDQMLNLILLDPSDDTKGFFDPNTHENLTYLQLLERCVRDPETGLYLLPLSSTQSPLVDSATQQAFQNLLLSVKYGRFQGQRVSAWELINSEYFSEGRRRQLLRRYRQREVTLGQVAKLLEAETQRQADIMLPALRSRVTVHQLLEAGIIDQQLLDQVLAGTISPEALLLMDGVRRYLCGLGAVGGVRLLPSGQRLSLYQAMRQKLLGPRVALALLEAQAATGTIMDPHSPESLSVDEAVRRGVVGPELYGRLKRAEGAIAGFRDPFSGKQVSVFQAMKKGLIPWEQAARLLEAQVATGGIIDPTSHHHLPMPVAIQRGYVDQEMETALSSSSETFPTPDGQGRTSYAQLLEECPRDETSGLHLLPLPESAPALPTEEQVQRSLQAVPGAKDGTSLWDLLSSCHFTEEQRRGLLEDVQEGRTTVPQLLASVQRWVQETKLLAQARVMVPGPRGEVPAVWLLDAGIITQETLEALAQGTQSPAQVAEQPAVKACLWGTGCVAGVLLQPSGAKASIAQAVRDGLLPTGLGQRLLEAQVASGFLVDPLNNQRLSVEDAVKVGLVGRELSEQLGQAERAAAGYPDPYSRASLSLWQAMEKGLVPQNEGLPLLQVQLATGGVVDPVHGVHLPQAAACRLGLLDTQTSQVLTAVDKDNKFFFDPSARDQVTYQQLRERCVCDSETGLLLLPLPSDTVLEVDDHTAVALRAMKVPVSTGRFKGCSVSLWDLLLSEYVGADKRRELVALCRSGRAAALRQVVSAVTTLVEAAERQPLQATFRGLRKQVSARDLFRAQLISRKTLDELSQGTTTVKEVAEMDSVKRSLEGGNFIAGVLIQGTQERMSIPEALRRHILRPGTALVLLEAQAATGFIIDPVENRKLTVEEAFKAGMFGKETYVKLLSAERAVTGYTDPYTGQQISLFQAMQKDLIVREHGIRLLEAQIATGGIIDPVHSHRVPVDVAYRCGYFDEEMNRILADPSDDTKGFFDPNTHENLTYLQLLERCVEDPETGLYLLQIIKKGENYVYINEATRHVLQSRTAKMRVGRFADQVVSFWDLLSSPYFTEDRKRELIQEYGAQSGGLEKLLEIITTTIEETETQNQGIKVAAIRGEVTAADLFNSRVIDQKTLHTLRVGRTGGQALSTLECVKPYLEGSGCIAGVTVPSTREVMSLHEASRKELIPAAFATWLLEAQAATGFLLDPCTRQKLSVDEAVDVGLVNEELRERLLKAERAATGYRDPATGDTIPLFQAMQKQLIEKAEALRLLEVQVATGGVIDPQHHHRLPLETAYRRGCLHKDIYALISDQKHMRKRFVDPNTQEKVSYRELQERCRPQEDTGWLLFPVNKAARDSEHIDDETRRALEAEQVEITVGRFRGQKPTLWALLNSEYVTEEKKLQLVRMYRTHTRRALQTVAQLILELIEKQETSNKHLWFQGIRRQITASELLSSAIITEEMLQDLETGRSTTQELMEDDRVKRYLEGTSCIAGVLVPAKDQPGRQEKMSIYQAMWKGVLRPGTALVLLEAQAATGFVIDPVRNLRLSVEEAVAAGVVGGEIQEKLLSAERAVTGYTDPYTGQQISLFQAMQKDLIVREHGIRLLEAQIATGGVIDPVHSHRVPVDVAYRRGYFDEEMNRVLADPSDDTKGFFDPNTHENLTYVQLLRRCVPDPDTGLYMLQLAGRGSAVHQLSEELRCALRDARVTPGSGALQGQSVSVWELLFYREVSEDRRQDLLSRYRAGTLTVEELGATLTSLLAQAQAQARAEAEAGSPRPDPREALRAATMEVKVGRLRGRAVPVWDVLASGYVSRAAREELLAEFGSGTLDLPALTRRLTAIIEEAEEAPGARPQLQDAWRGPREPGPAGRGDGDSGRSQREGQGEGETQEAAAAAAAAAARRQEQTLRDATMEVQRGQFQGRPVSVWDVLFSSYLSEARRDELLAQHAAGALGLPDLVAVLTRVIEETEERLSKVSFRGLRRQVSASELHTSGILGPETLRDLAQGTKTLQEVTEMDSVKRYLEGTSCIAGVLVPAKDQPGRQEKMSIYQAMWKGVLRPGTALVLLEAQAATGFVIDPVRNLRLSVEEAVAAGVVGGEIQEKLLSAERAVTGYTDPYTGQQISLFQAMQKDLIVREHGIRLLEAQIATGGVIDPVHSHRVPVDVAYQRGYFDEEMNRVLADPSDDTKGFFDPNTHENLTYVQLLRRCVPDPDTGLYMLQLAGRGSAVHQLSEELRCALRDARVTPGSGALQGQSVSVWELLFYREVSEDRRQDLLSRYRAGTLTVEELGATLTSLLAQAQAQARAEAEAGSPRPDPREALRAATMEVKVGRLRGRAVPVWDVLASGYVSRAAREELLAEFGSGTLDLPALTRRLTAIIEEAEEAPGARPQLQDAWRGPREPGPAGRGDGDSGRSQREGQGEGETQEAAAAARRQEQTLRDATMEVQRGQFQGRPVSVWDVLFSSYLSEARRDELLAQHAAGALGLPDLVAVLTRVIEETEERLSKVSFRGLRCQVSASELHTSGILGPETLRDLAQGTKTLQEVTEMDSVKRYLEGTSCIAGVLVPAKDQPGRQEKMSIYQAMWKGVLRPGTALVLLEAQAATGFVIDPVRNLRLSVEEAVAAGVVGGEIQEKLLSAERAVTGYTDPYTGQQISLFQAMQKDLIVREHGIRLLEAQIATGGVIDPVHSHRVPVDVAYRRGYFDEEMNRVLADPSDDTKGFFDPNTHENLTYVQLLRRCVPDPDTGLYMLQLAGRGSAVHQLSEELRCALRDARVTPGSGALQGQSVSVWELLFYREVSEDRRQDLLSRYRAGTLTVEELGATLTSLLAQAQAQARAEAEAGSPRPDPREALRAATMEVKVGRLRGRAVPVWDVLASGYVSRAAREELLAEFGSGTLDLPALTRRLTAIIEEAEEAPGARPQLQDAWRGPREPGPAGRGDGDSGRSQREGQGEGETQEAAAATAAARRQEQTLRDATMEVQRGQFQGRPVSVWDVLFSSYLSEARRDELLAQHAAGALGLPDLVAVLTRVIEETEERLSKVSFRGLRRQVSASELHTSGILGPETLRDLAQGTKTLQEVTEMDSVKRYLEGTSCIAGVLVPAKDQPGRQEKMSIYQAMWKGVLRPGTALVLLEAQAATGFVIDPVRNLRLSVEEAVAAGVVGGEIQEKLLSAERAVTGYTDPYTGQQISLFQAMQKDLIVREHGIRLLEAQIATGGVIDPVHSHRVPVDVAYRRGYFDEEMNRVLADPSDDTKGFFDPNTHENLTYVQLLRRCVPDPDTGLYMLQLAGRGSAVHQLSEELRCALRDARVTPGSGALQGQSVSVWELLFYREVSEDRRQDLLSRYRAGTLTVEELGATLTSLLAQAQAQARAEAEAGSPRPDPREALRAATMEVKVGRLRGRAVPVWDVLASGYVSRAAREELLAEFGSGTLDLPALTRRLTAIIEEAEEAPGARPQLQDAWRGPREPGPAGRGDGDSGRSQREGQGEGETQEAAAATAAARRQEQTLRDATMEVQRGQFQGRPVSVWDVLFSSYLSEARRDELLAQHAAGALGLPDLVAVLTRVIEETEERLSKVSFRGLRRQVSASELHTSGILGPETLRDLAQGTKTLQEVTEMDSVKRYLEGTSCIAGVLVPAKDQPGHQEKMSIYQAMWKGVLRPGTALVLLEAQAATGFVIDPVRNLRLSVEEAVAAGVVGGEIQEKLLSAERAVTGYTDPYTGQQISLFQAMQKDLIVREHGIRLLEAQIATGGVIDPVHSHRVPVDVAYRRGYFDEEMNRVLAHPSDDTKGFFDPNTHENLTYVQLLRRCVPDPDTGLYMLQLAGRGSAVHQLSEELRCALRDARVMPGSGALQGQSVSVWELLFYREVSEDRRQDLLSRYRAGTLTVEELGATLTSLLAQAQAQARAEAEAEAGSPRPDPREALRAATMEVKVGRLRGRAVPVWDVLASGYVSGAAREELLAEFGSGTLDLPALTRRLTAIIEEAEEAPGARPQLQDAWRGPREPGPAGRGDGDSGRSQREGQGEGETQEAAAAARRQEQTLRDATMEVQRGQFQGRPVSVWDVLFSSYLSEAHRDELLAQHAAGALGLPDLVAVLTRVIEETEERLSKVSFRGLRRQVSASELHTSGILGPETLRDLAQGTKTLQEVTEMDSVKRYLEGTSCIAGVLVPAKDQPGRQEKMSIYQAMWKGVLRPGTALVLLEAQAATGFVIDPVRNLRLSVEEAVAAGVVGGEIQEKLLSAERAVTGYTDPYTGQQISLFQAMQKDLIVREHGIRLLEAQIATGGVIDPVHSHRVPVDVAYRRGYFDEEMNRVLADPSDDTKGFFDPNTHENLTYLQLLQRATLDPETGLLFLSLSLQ
UniProt Q9BW60: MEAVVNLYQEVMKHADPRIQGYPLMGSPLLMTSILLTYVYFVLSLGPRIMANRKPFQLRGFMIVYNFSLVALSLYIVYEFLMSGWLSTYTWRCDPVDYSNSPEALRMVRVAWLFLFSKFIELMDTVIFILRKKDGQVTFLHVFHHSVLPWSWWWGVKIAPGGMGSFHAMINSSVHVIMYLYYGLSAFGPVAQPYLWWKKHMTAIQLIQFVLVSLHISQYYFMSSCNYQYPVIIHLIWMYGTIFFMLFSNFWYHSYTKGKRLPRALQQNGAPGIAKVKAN
UniProt P26378: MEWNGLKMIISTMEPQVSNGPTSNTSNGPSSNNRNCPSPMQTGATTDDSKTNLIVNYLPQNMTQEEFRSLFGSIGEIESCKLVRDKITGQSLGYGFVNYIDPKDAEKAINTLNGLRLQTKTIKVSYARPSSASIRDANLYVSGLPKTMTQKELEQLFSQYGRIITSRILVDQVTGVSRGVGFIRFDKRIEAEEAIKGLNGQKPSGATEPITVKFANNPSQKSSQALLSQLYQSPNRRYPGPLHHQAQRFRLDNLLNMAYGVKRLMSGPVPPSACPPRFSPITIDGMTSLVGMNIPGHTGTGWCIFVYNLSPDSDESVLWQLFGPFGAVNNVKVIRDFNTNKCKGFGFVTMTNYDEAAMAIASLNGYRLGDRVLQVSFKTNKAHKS
UniProt O75354: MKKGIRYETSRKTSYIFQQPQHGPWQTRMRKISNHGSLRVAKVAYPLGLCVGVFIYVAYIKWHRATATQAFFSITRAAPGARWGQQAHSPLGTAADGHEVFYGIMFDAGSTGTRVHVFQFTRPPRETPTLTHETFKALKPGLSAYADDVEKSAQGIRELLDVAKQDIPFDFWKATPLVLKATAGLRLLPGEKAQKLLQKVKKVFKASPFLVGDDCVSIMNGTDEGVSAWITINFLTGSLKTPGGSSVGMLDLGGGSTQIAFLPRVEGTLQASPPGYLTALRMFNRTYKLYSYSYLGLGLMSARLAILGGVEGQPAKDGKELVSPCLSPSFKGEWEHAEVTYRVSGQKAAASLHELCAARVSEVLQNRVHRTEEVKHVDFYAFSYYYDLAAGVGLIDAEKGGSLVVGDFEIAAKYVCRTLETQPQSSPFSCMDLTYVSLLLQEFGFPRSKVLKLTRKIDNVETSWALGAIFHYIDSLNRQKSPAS

Legend:
Test in all cases: log2 fold change, soluble protein after heating vs DMSO (PISA); higher = thermal stabilisation; K562 lysate, 10 uM; active = over 0.2 and 3.5 SD of the protein, either way, in both replicates (recomputed)
alvocidib = compound: CN1CC[C@H](c2c(O)cc(O)c3c(=O)cc(-c4ccccc4Cl)oc23)[C@H](O)C1 [alvocidib]
Summary of the method: (§1)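 Thermal stability, expressed as log-two fold change relative to solvent controls, is given from duplicates. Crude K562 extract in PBS pH 7.4 with 1 mM MgCl2, at 1 mg/mL protein, was treated with 10 μM compound for 30 min and heated in aliquots for 3 min across 48°C-58°C. After pooling, adjustment to 0.5% NP-40 at 4°C and centrifugation at 21,000xg for 90 min, supernatant protein was measured by TMTpro 16plex LC-MS/MS with channel sums equalised.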

Tubastatin A = compound: CN1CCc2c(c3ccccc3n2Cc2ccc(C(=O)NO)cc2)C1 [Tubastatin A]
Summary of the method: as §1

[1] = compound: CNC(=O)C1=CC=CC=C1NC2=NC(=NC=C2Cl)NC3=C(C=C(C=C3)N4CCOCC4)OC
Summary of the method: as §1

defactinib = compound: CNC(=O)c1ccc(Nc2ncc(C(F)(F)F)c(NCc3nccnc3N(C)S(C)(=O)=O)n2)cc1 [defactinib]
Summary of the method: as §1

[2] = compound: CNc1nc(-c2ccc3c(N)n[nH]c3c2)cc(N2C[C@@H](C(=O)NC3CCCCC3)CC[C@H]2C)n1
Summary of the method: as §1

encorafenib = compound: COC(=O)N[C@@H](C)CNc1nccc(-c2cn(C(C)C)nc2-c2cc(Cl)cc(NS(C)(=O)=O)c2F)n1 [encorafenib]
Summary of the method: as §1

[3] = compound: COC(=O)[C@H](CCSC)NC(=O)C1=C(C=C(C=C1)NC[C@H](CS)N)C2=CC=CC=C2
Summary of the method: as §1

alisertib = compound: COc1cc(Nc2ncc3c(n2)-c2ccc(Cl)cc2C(c2c(F)cccc2OC)=NC3)ccc1C(=O)O [alisertib]
Summary of the method: as §1

[4] = compound: COc1cc2nc(-c3cc(F)ccc3O)nc(N[C@@H]3CNC[C@H]3C(C)(C)O)c2cc1OC
Summary of the method: as §1

gefitinib = compound: COc1cc2ncnc(Nc3ccc(F)c(Cl)c3)c2cc1OCCCN1CCOCC1 [gefitinib]
Summary of the method: as §1

lapatinib = compound: CS(=O)(=O)CCNCc1ccc(-c2ccc3ncnc(Nc4ccc(OCc5cccc(F)c5)c(Cl)c4)c3c2)o1 [lapatinib]
Summary of the method: as §1

pictilisib = compound: CS(=O)(=O)N1CCN(Cc2cc3nc(-c4cccc5[nH]ncc45)nc(N4CCOCC4)c3s2)CC1 [pictilisib]
Summary of the method: as §1

crizotinib = compound: C[C@@H](Oc1cc(-c2cnn(C3CCNCC3)c2)cnc1N)c1c(Cl)ccc(F)c1Cl [crizotinib]
Summary of the method: as §1

[5] = compound: C[C@H](C1=CC=C(C=C1)C(=O)NC2=C3C=CNC3=NC=C2)N
Summary of the method: as §1

duvelisib = compound: C[C@H](Nc1ncnc2nc[nH]c12)c1cc2cccc(Cl)c2c(=O)n1-c1ccccc1 [duvelisib]
Summary of the method: as §1

gandotinib = compound: Cc1cc(Nc2cc(CN3CCOCC3)c3nc(C)c(Cc4ccc(Cl)cc4F)n3n2)n[nH]1 [gandotinib]
Summary of the method: as §1

tozasertib = compound: Cc1cc(Nc2cc(N3CCN(C)CC3)nc(Sc3ccc(NC(=O)C4CC4)cc3)n2)n[nH]1 [tozasertib]
Summary of the method: as §1

doramapimod = compound: Cc1ccc(-n2nc(C(C)(C)C)cc2NC(=O)Nc2ccc(OCCN3CCOCC3)c3ccccc23)cc1 [doramapimod]
Summary of the method: as §1

bafetinib = compound: Cc1ccc(NC(=O)c2ccc(CN3CC[C@H](N(C)C)C3)c(C(F)(F)F)c2)cc1Nc1nccc(-c2cncnc2)n1 [bafetinib]
Summary of the method: as §1

[6] = compound: Cc1cccc(CC(=O)N2CCc3c2ccc(-c2cn(C)c4ncnc(N)c24)c3F)n1
Summary of the method: as §1

Measured: log2 fold change

EIF2B4 isoform 2 (UniProt Q9UI10)
inactive: alvocidib -0.015 | Tubastatin A -0.025 | [1] 0.013 | defactinib 0.035 | [2] 0.02 | encorafenib 0.018 | [3] 0.162 | alisertib -0.014 | [4] 0.016 | gefitinib 0 | lapatinib -0.041 | pictilisib 0.007 | crizotinib -0.037 | [5] -0.021 | duvelisib -0.013 | gandotinib -0.048 | tozasertib -0.01 | doramapimod -0.012 | bafetinib -0.058 | [6] 0.044

EMP3 (UniProt P54852)
active: [5] -0.763 | gandotinib 0.351 | [6] 0.329
inactive: alvocidib -0.227 | Tubastatin A -0.021 | [1] 0.067 | defactinib 0.009 | [2] 0.056 | encorafenib -0.016 | [3] 0.022 | alisertib 0.053 | [4] 0.052 | gefitinib -0.071 | lapatinib 0 | pictilisib -0.03 | crizotinib -0.002 | duvelisib 0 | tozasertib -0.078 | doramapimod 0.029 | bafetinib -0.019

ELOVL5 isoform 2 (UniProt Q9NYP7)
inactive: alvocidib -0.033 | Tubastatin A -0.134 | defactinib -0.028 | [2] -0.12 | encorafenib 0.074 | [3] -0.081 | alisertib 0.098 | [4] -0.036 | gefitinib 0.042 | lapatinib 0.085 | pictilisib -0.028 | crizotinib -0.062 | [5] -0.099 | duvelisib 0.059 | gandotinib -0.205 | tozasertib -0.051 | doramapimod 0.023 | bafetinib -0.155 | [6] 0.298

ELOF1 (UniProt P60002)
inactive: alvocidib -0.055 | Tubastatin A 0.131 | [1] -0.045 | [2] 0.023 | [4] -0.013 | lapatinib 0.082 | pictilisib -0.058 | crizotinib -0.228 | [5] -0.061 | duvelisib 0.105 | gandotinib -0.058 | doramapimod 0.165 | bafetinib 0.122 | [6] -0.032

ELK1 (UniProt P19419)
inactive: alvocidib 0.009 | Tubastatin A 0.091 | defactinib -0.163 | [2] 0.047 | encorafenib 0.124 | [3] 0.035 | pictilisib -0.187 | [5] -0.032 | duvelisib -0.009 | gandotinib 0.011 | tozasertib 0.374 | bafetinib 0.047 | [6] 0.007

EPN1 (UniProt Q9Y6I3)
inactive: alvocidib -0.01 | Tubastatin A 0.02 | [1] -0.013 | defactinib -0.014 | [2] 0.029 | encorafenib -0.024 | [3] -0.079 | alisertib -0.019 | [4] 0.011 | gefitinib 0.03 | lapatinib 0.008 | pictilisib 0.011 | crizotinib 0.039 | [5] 0.088 | duvelisib -0.019 | gandotinib -0.007 | tozasertib -0.025 | doramapimod -0.023 | bafetinib -0.018 | [6] -0.035

EPPK1 (UniProt P58107)
inactive: alvocidib 0.038 | Tubastatin A -0.114 | [1] -0.027 | defactinib 0.032 | [2] -0.109 | encorafenib 0.029 | [3] 0.144 | alisertib 0 | [4] 0.044 | gefitinib 0.01 | lapatinib -0.011 | pictilisib 0.084 | crizotinib -0.094 | [5] -0.008 | duvelisib -0.015 | gandotinib -0.023 | tozasertib 0.021 | doramapimod 0.055 | bafetinib -0.043 | [6] 0.041

ELOVL1 (UniProt Q9BW60)
inactive: alvocidib 0.017 | Tubastatin A -0.052 | [1] -0.073 | defactinib 0.083 | [2] -0.079 | encorafenib -0.038 | [3] 0.001 | [4] 0.032 | lapatinib -0.189 | pictilisib -0.026 | crizotinib -0.104 | [5] -0.014 | duvelisib -0.039 | gandotinib -0.177 | tozasertib 0.029 | doramapimod -0.093 | bafetinib -0.052 | [6] 0.046

ELP2 isoform 6 (UniProt Q6IA86)
inactive: alvocidib -0.038 | Tubastatin A -0.019 | [1] 0.008 | defactinib 0.008 | [2] -0.064 | encorafenib 0.037 | [3] -0.003 | alisertib -0.009 | [4] 0.002 | gefitinib -0.005 | lapatinib -0.042 | pictilisib -0.009 | crizotinib 0 | [5] -0.074 | duvelisib 0 | gandotinib 0.004 | tozasertib 0.015 | doramapimod 0.032 | bafetinib -0.007 | [6] 0.019

EPM2AIP1 (UniProt Q7L775)
inactive: alvocidib 0.017 | Tubastatin A -0.006 | [1] 0.053 | defactinib -0.019 | [2] 0.002 | encorafenib 0.002 | [3] -0.004 | alisertib 0.03 | [4] -0.021 | gefitinib 0.013 | lapatinib -0.031 | pictilisib -0.009 | crizotinib 0.025 | [5] 0.004 | duvelisib 0.013 | gandotinib -0.088 | tozasertib 0.038 | doramapimod -0.001 | bafetinib 0.082 | [6] -0.002

ELAVL4 (UniProt P26378)
inactive: alvocidib 0.019 | Tubastatin A -0.125 | [1] 0.036 | defactinib -0.007 | [2] -0.003 | encorafenib 0.003 | [3] 0.211 | alisertib 0.136 | [4] -0.031 | gefitinib 0.056 | lapatinib -0.017 | crizotinib -0.065 | [5] -0.064 | duvelisib 0.03 | gandotinib -0.034 | tozasertib 0.05 | doramapimod 0.035 | [6] -0.061

ENTPD6 (UniProt O75354)
inactive: alvocidib -0.051 | Tubastatin A -0.04 | [1] -0.088 | [2] 0.069 | [4] -0.059 | lapatinib -0.041 | pictilisib 0.057 | crizotinib -0.03 | [5] -0.096 | duvelisib 0.03 | gandotinib -0.05 | doramapimod 0.018 | bafetinib -0.101 | [6] -0.021

ELAVL1 isoform 2 (UniProt Q15717)
inactive: alvocidib 0.013 | Tubastatin A -0.187 | [1] 0.05 | defactinib -0.005 | [2] -0.011 | encorafenib 0.018 | [3] 0.166 | alisertib 0.019 | [4] -0.002 | gefitinib 0.048 | lapatinib 0.031 | pictilisib -0.002 | crizotinib -0.037 | [5] 0.055 | duvelisib 0.001 | gandotinib -0.067 | tozasertib -0.047 | doramapimod 0.007 | bafetinib -0.004 | [6] -0.026

EPG5 (UniProt Q9HCE0)
inactive: alvocidib 0.145 | Tubastatin A -0.035 | [1] 0.212 | [2] 0.05 | encorafenib 0.026 | [3] -0.107 | alisertib -0.058 | [4] 0.057 | gefitinib 0.092 | lapatinib 0.025 | pictilisib 0.12 | crizotinib -0.05 | [5] 0.075 | duvelisib 0.054 | gandotinib -0.093 | tozasertib -0.065 | doramapimod -0.109 | bafetinib -0.054 | [6] -0.041

Quoted at random: two records from the list.
EPG5 (UniProt Q9HCE0)
inactive: alvocidib 0.145 | Tubastatin A -0.035 | [1] 0.212 | [2] 0.05 | encorafenib 0.026 | [3] -0.107 | alisertib -0.058 | [4] 0.057 | gefitinib 0.092 | lapatinib 0.025 | pictilisib 0.12 | crizotinib -0.05 | [5] 0.075 | duvelisib 0.054 | gandotinib -0.093 | tozasertib -0.065 | doramapimod -0.109 | bafetinib -0.054 | [6] -0.041

EMP3 (UniProt P54852)
active: [5] -0.763 | gandotinib 0.351 | [6] 0.329
inactive: alvocidib -0.227 | Tubastatin A -0.021 | [1] 0.067 | defactinib 0.009 | [2] 0.056 | encorafenib -0.016 | [3] 0.022 | alisertib 0.053 | [4] 0.052 | gefitinib -0.071 | lapatinib 0 | pictilisib -0.03 | crizotinib -0.002 | duvelisib 0 | tozasertib -0.078 | doramapimod 0.029 | bafetinib -0.019

Additional results follow.

ELAC2 (UniProt Q9BQ52)
inactive: alvocidib -0.032 | Tubastatin A 0.028 | [1] -0.006 | defactinib -0.002 | [2] -0.001 | encorafenib -0.004 | [3] 0.028 | alisertib -0.02 | [4] -0.002 | gefitinib -0.008 | lapatinib -0.006 | pictilisib -0.011 | crizotinib -0.006 | [5] -0.125 | duvelisib 0.003 | gandotinib 0.115 | tozasertib -0.015 | doramapimod 0.033 | bafetinib 0.063 | [6] 0.093

EIF3G (UniProt K7ER90)
inactive: alvocidib 0.007 | Tubastatin A 0.103 | [1] 0.015 | defactinib -0.162 | [2] 0.009 | encorafenib -0.013 | [3] -0.061 | alisertib 0.025 | [4] -0.01 | gefitinib 0.14 | lapatinib 0 | pictilisib -0.223 | crizotinib -0.255 | [5] -0.219 | duvelisib -0.004 | gandotinib 0 | tozasertib -0.046 | doramapimod 0.137 | bafetinib -0.033 | [6] 0.19
